Laboratory results: the supplement of paper PMC6411743
± gives the standard deviation of the averaged measurements. This is a selection; strong and weak results do not stand in their true shares. Small differences around the control level are noise.

By UniProt entry, the sequences of proteins in these tests, tags left out. Where a name states a change or a piece, a line headed by the entry shows the natural chain unless it says otherwise.
UniProt Q9NQX3: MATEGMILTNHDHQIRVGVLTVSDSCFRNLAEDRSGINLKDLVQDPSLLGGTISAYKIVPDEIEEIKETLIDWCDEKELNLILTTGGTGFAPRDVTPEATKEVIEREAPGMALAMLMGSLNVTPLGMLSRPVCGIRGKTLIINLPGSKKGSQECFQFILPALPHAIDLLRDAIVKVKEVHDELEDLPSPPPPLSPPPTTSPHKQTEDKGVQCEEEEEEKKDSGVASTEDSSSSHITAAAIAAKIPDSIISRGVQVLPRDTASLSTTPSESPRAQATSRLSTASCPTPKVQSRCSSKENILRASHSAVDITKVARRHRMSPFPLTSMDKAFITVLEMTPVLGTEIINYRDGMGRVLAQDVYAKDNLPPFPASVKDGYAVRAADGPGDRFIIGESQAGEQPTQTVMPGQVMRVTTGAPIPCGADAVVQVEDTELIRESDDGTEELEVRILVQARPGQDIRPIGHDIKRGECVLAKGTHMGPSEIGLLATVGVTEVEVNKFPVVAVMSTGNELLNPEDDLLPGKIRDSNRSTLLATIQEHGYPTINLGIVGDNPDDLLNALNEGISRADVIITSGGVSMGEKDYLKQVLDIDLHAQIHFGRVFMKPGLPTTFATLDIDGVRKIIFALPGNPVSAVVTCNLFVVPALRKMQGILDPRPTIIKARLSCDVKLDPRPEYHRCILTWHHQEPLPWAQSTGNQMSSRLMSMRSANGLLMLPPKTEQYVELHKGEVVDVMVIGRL
UniProt Q9NSE4: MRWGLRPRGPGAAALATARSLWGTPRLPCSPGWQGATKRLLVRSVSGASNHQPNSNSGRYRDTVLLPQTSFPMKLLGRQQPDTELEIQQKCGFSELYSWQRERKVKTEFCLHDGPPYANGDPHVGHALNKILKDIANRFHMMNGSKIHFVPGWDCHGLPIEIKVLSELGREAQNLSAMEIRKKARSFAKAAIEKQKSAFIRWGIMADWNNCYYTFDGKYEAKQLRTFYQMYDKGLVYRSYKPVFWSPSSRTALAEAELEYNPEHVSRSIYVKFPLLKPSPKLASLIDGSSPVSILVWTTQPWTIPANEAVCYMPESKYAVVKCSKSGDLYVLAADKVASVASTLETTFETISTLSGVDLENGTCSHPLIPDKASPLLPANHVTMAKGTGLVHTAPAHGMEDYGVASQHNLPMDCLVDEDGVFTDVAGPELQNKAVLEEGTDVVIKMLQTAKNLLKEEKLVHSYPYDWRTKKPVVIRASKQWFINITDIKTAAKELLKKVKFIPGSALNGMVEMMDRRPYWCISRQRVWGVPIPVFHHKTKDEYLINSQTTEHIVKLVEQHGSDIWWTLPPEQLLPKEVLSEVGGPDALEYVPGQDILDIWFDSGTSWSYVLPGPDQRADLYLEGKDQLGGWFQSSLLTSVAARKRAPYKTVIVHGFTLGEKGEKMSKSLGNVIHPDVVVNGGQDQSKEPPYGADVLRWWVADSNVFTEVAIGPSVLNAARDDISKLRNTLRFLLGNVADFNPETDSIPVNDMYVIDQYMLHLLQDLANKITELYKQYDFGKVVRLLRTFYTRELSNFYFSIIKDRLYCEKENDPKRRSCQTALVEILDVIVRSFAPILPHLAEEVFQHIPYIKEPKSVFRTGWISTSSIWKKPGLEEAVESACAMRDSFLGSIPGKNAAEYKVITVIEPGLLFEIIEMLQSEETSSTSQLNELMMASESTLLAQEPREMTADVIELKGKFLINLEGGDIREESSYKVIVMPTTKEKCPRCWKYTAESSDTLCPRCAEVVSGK
UniProt Q9NUQ7: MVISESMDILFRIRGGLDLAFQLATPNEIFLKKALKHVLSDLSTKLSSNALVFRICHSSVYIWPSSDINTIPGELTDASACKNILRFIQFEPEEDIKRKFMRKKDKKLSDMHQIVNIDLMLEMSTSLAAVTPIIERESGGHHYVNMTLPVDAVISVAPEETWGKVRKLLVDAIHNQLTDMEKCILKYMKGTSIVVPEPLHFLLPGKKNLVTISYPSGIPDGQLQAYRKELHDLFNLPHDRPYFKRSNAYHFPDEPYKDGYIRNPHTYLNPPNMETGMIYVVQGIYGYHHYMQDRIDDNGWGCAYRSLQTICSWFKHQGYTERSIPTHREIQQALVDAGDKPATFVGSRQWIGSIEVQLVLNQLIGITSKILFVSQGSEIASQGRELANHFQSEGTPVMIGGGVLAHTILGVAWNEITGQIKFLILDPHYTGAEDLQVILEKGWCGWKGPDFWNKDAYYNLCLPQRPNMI
UniProt Q9NPH3, whole entry: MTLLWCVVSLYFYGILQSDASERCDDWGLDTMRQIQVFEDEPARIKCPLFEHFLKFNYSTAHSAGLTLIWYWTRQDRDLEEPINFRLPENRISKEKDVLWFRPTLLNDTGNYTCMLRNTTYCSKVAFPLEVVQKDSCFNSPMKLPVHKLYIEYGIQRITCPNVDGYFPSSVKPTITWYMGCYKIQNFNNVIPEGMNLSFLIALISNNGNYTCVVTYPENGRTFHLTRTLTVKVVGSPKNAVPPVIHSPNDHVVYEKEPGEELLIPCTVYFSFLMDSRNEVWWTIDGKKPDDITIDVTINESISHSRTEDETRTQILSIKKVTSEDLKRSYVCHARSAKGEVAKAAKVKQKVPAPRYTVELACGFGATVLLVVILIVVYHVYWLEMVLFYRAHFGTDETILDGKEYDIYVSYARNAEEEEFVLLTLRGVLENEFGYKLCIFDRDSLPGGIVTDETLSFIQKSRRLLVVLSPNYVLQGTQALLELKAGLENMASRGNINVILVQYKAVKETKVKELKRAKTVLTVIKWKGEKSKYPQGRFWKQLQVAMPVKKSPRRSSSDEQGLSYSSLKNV
UniProt Q9NVC6: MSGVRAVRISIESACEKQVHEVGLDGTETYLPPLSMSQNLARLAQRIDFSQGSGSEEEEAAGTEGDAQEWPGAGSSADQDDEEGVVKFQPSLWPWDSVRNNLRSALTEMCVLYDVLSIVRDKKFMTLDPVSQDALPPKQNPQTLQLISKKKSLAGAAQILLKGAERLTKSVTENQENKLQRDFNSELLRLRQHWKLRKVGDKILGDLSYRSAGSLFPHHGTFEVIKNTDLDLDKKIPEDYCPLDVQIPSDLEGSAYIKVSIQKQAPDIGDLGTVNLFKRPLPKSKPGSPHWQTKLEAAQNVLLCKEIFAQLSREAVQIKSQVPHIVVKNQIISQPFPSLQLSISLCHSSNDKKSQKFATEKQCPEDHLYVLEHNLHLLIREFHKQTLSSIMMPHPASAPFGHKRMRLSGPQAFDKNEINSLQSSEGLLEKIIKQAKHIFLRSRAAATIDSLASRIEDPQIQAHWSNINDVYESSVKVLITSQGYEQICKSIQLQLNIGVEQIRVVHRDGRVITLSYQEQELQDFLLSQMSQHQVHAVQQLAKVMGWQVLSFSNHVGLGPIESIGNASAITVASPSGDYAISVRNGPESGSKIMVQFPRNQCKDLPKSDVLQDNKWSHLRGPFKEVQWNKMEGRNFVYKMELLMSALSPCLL
UniProt Q9NVR5: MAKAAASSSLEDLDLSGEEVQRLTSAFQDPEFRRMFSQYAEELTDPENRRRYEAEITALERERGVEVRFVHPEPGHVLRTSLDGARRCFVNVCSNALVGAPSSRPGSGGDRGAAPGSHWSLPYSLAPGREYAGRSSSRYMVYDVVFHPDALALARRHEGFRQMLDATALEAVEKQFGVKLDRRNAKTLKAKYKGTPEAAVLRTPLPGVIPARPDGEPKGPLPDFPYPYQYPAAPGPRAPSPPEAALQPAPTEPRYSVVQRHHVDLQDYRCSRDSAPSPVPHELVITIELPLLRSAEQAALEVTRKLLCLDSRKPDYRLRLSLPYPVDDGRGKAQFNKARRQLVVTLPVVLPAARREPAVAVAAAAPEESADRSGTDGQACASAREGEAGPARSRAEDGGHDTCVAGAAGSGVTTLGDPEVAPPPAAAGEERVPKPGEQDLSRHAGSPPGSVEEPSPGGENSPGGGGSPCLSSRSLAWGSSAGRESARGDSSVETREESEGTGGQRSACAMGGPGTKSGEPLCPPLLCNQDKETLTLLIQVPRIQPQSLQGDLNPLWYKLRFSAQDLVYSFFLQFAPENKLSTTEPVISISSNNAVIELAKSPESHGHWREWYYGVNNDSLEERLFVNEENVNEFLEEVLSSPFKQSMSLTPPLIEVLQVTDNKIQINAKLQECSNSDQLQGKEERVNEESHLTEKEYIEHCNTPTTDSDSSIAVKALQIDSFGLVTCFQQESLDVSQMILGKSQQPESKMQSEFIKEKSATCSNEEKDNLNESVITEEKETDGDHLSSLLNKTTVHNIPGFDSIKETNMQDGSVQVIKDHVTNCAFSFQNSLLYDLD
UniProt Q9NYV4, whole entry, looked up: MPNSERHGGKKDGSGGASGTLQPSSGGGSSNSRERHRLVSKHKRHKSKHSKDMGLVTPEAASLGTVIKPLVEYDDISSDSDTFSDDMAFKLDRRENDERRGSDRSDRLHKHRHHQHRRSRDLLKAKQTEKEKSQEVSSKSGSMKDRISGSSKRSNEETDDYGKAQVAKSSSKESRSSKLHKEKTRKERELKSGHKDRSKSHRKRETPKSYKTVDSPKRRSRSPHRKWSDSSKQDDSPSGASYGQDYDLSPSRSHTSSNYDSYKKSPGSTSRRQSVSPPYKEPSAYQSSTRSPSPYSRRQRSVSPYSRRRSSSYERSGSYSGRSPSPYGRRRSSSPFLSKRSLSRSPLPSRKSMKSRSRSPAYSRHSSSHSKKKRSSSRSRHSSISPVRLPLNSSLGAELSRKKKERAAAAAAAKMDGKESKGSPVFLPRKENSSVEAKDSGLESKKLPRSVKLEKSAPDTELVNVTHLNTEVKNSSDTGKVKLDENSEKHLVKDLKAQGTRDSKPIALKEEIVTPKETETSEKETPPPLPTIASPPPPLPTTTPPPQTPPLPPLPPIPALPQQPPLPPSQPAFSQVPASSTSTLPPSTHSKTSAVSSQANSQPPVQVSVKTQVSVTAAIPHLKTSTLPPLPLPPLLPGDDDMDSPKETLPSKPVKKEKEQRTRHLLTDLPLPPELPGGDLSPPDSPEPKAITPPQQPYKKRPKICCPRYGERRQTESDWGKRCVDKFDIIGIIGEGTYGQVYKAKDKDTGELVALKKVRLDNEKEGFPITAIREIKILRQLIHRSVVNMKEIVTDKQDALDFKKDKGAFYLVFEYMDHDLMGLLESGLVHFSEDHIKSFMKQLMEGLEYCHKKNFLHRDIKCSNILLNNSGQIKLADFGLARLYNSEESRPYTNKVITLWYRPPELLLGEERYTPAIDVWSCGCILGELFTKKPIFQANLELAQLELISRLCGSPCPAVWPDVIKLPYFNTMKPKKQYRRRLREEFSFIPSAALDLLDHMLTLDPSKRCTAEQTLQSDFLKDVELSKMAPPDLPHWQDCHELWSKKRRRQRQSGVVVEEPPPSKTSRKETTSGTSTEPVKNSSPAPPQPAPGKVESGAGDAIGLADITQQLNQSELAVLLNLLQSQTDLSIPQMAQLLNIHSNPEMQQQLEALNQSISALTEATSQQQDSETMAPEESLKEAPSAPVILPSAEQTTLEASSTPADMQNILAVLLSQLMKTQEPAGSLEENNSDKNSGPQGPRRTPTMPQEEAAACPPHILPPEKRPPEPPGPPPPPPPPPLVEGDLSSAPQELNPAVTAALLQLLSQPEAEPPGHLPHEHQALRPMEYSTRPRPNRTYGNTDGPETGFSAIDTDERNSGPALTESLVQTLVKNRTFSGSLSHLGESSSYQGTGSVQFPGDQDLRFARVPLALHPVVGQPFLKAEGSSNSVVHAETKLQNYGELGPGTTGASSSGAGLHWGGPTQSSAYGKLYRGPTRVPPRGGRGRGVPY
UniProt Q9NPL8: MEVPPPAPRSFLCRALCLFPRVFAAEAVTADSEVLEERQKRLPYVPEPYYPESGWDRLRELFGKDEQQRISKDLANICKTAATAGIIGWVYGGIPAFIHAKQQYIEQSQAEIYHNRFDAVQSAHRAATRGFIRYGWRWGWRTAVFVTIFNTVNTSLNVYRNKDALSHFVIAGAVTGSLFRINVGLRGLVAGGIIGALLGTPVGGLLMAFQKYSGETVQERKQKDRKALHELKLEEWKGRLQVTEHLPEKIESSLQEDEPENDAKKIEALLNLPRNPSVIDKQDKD
UniProt Q9P035: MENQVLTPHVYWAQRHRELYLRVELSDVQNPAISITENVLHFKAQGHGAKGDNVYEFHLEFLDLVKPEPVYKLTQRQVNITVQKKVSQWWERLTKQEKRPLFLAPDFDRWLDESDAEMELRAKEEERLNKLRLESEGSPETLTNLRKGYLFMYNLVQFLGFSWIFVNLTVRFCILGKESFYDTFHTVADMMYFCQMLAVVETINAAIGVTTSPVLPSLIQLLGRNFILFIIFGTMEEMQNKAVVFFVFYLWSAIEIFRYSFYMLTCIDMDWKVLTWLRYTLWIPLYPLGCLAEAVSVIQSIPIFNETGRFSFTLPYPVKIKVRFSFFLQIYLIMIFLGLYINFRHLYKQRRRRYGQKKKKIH

Compound: Nc1ncnc2c1ncn2[C@@H]1O[C@H](COP(=O)(O)OP(=O)(O)OP(=O)(O)O)[C@@H](O)[C@H]1O [adenosine triphosphate]
Test: NP40-soluble protein abundance relative to vehicle (solubility fold change) (ratio); higher = more soluble protein in presence of ATP
Summary of the method: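 Jurkat crude lysate prepared with a Dounce homogeniser was treated at eight concentrations spanning 0.1 to 10 mM, 10 min at room temperature then 3 min at 37 °C. Solubilisation with 0.8% NP40 and benzonase and ultracentrifugation preceded TMT labelling of the supernatant for LC-MS/MS. Fold change against the detergent-processed vehicle was determined per replicate from vsn-normalised intensities, across three independent experiments.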

Target	NP40-soluble protein abundance (concentration: 0.1mM)	NP40-soluble protein abundance (concentration: 0.5mM)	NP40-soluble protein abundance (concentration: 1mM)	NP40-soluble protein abundance (concentration: 2mM)	NP40-soluble protein abundance (concentration: 4mM)	NP40-soluble protein abundance (concentration: 6mM)	NP40-soluble protein abundance (concentration: 8mM)	NP40-soluble protein abundance (concentration: 10mM)
UniProt Q9NUL5	1.01 ± 0.04	0.968 ± 0.038	0.948 ± 0.041	0.972 ± 0.048	0.921 ± 0.029	0.921 ± 0.057	0.908 ± 0.025	0.924 ± 0.035
UniProt Q9NVX7-2|A0A075B6T4|Q9NVX7	1.03 ± 0.042	1.02 ± 0.026	1 ± 0.072	1.02 ± 0.066	1 ± 0.11	0.957 ± 0.095	1.05 ± 0.065	0.975 ± 0.036
UniProt Q9NQX3 and related entries	1.02 ± 0.025	0.989 ± 0.03	–	–	–	–	–	–
UniProt Q9NQ86 and related entries	1.02 ± 0.031	0.979 ± 0.045	–	–	–	–	–	–
IARS2 (UniProt Q9NSE4)	1.06 ± 0.1	1.07 ± 0.087	1.04 ± 0.08	1.02 ± 0.075	0.991 ± 0.069	0.977 ± 0.1	1.02 ± 0.056	0.98 ± 0.069
UniProt Q9NUL3-3|Q9NUL3-8|A0A0A0MTD1|E7EPX0 and related entries	0.956 ± 0.091	0.958 ± 0.052	0.971 ± 0.048	1.11 ± 0.13	1.02 ± 0.057	1.11 ± 0.15	1.16 ± 0.099	1.3 ± 0.11
SACS (UniProt Q9NZJ4)	1.1 ± 0.038	1.04 ± 0.089	1.09 ± 0.08	1.04 ± 0.072	1.08 ± 0.056	0.991 ± 0.075	1.102 ± 0.01	1.05 ± 0.042
UniProt Q9NW64	1.03 ± 0.051	1.05 ± 0.072	1.05 ± 0.068	1.04 ± 0.041	1.07 ± 0.034	1.09 ± 0.05	1.1 ± 0.049	1.11 ± 0.019
UniProt Q9NUQ7 and related entries	1.11 ± 0.071	1.12 ± 0.066	1.09 ± 0.15	1.07 ± 0.13	1.05 ± 0.093	0.95 ± 0.18	1.08 ± 0.072	1.02 ± 0.091
UniProt Q9NYP7 and related entries	1.09 ± 0.14	1.04 ± 0.083	1.07 ± 0.19	1.05 ± 0.12	1.05 ± 0.14	0.94 ± 0.15	1.09 ± 0.17	1.01 ± 0.056
UniProt Q9NY12 and related entries	0.982 ± 0.068	1.04 ± 0.079	1.11 ± 0.061	1.18 ± 0.084	1.29 ± 0.067	1.41 ± 0.16	1.72 ± 0.15	1.93 ± 0.32
DDX21 (UniProt Q9NR30)	1.08 ± 0.028	1.18 ± 0.063	1.29 ± 0.046	1.42 ± 0.042	1.65 ± 0.098	2.04 ± 0.17	2.53 ± 0.21	3.17 ± 0.13
UniProt Q9NPH3 and related entries	0.928 ± 0.07	0.981 ± 0.097	–	–	–	–	–	–
MED17 (UniProt Q9NVC6)	1.01 ± 0.047	1.02 ± 0.028	–	–	–	–	–	–
UniProt Q9NVR5	1.04 ± 0.067	1.02 ± 0.022	0.965 ± 0.028	0.98 ± 0.039	1 ± 0.047	1.04 ± 0.065	1.01 ± 0.12	0.967 ± 0.044
UniProt Q9NYV4 and related entries	1.04 ± 0.023	1.23 ± 0.033	–	–	–	–	–	–
UniProt Q9NPL8	0.989 ± 0.016	1.01 ± 0.051	–	–	–	–	–	–
UniProt Q9NYK6 and related entries	1.07 ± 0.024	1.01 ± 0.031	1.09 ± 0.13	1.02 ± 0.026	1.04 ± 0.011	1.05 ± 0.089	0.99 ± 0.066	1.05 ± 0.026
MRPL17 (UniProt Q9NRX2)	0.914 ± 0.2	0.853 ± 0.14	1.08 ± 0.13	0.934 ± 0.14	0.939 ± 0.14	0.916 ± 0.33	0.93 ± 0.21	0.822 ± 0.18
ARMC1 (UniProt Q9NVT9)	0.919 ± 0.01	0.928 ± 0.073	0.913 ± 0.046	0.946 ± 0.018	0.876 ± 0.024	0.866 ± 0.063	0.881 ± 0.035	0.908 ± 0.029
UniProt Q9P035 and related entries	1.08 ± 0.11	1.08 ± 0.029	1.1 ± 0.16	1.1 ± 0.11	1.1 ± 0.11	1.01 ± 0.091	1.1 ± 0.033	1.15 ± 0.083
RPRD1B (UniProt Q9NQG5)	0.909 ± 0.11	0.851 ± 0.13	0.969 ± 0.12	0.943 ± 0.039	0.971 ± 0.049	0.993 ± 0.089	1.02 ± 0.034	0.854 ± 0.15

A different layout for part of the listing above:
Target,NP40-soluble protein abundance (concentration: 0.1mM),NP40-soluble protein abundance (concentration: 0.5mM),NP40-soluble protein abundance (concentration: 1mM),NP40-soluble protein abundance (concentration: 2mM),NP40-soluble protein abundance (concentration: 4mM),NP40-soluble protein abundance (concentration: 6mM),NP40-soluble protein abundance (concentration: 8mM),NP40-soluble protein abundance (concentration: 10mM)
SACS (UniProt Q9NZJ4),1.1 ± 0.038,1.04 ± 0.089,1.09 ± 0.08,1.04 ± 0.072,1.08 ± 0.056,0.991 ± 0.075,1.102 ± 0.01,1.05 ± 0.042
UniProt Q9NY12 and related entries,0.982 ± 0.068,1.04 ± 0.079,1.11 ± 0.061,1.18 ± 0.084,1.29 ± 0.067,1.41 ± 0.16,1.72 ± 0.15,1.93 ± 0.32
MED17 (UniProt Q9NVC6),1.01 ± 0.047,1.02 ± 0.028,–,–,–,–,–,–
ARMC1 (UniProt Q9NVT9),0.919 ± 0.01,0.928 ± 0.073,0.913 ± 0.046,0.946 ± 0.018,0.876 ± 0.024,0.866 ± 0.063,0.881 ± 0.035,0.908 ± 0.029
UniProt Q9P035 and related entries,1.08 ± 0.11,1.08 ± 0.029,1.1 ± 0.16,1.1 ± 0.11,1.1 ± 0.11,1.01 ± 0.091,1.1 ± 0.033,1.15 ± 0.083
